Primary screen of a compound library

From ChEMBL document CHEMBL3988442, “University of Dundee, Small-Polar-MMV Screening Library” (2021).

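Assay of Toxoplasma gondii numbers, read through their beta-galactosidase reporter with a colour substrate. Concentration: 50 µM. Higher reads as fewer parasites (inferred from which compounds were picked for retests). About 18,000 compounds were tested under these conditions; 0.94% (about 170) showed 50% or more at least once.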

Each number is a percent effect as filed.
The record does not define 0% and 100%; most values in the screen are far below 50% and negative numbers occur (in some assays of this library far below -100).
Compounds were drawn at random from those tested, without regard to their results.

{"structure": "Nc1ccc(C(=O)N2CCOCC2)cn1", "effect": -9.846}
{"structure": "NCc1nc(-c2cccc(Cl)c2)no1", "effect": -28.61}
{"structure": "NC(=O)CNc1cccc2ccccc12", "effect": -4.39}
{"structure": "CCN(Cc1ccc(F)c(F)c1)[C@H]1COC[C@@H]1O", "effect": -7.71}
{"structure": "Cc1ncccc1CNc1c(C)c(C)nn1CCO", "effect": 1.441}
{"structure": "O=C(Nc1cn[nH]c1)Nc1cccc(OCC(F)F)n1", "effect": 0.4182}
{"structure": "CNC(=O)C1CN(C(=O)Nc2cccc(C)c2)CCO1", "stereo": "stereo not shown", "effect": 2.889}
{"structure": "CNS(=O)(=O)c1csc(C(=O)N(CC(F)F)C2CC2)c1", "effect": -10.91}
{"structure": "CCCNS(=O)(=O)c1ccc(OCC(N)=O)c(C)c1", "effect": -0.8054}
{"structure": "O=C(NC1CC1)c1ccc(Cn2cnnn2)cc1", "effect": -19.5}
{"structure": "CN(Cc1ccncc1)Cc1cc(C(N)=O)cs1", "effect": -4.331}
{"structure": "Cc1c(C(=O)N2CCN(c3nccs3)CC2)cnn1C", "effect": -10.37}
{"structure": "NCCc1cccs1", "effect": 1.95}
{"structure": "NCC(=O)NCCN1CCCCC1", "effect": -5.143}
{"structure": "NCc1cccc(N)n1", "effect": 8.785}
{"structure": "CCN1CCc2nc(NC(=O)c3ccncc3)sc2C1", "effect": 61.16}
{"structure": "COc1ccc(OC)c(CN(C)CCN(C)C)c1", "effect": 0.6864}
{"structure": "Nc1ccc(Br)c(=O)[nH]1", "effect": 4.262}
{"structure": "Cc1n[nH]cc1CNCCNc1ncccn1", "effect": -19.44}
{"structure": "Cc1csc(CNC(=O)c2cc[nH]n2)n1", "effect": 8.806}
{"structure": "CCN(CC)C(=O)c1ccc(=O)n(CCOC)n1", "effect": -6.928}
{"structure": "Nc1nc(CNC(=O)CCCOc2ccccc2)n[nH]1", "effect": -1.028}
{"structure": "CC(CO)NC(=O)NCc1cnn(-c2ccccc2)c1", "stereo": "stereo not shown", "effect": 2.481}
{"structure": "CN(C)c1cc(CN)ccn1", "effect": -3.085}
{"structure": "NC1CC(=O)c2ccccc21", "stereo": "stereo not shown", "effect": -2.634}
{"structure": "Cc1ccccc1-c1nnn(CC(O)CC(F)(F)F)n1", "stereo": "stereo not shown", "effect": -8.034}
{"structure": "OCC1CCN(Cc2ccccc2)CC1", "effect": -5.201}
{"structure": "CC(C)(O)C(=O)NC1CCN(CC2CCCC2)CC1", "effect": -4.938}
{"structure": "O=C(CO)Nc1nsc(-c2ccccc2)n1", "effect": 9.346}
{"structure": "CNc1ncccc1F", "effect": 5.299}

3 of the entries, repeated:

structure	effect
OCC1CCN(Cc2ccccc2)CC1	-5.201%
CNC(=O)C1CN(C(=O)Nc2cccc(C)c2)CCO1 (stereo not shown)	2.889%
Nc1nc(CNC(=O)CCCOc2ccccc2)n[nH]1	-1.028%